Source: publication PMC5871715
Results are given in words; binding and its absence hold for the method and conditions named.

Molecular target: T1, full-length human Draxin for SAXS (human), Q8NBI3
T1 chain: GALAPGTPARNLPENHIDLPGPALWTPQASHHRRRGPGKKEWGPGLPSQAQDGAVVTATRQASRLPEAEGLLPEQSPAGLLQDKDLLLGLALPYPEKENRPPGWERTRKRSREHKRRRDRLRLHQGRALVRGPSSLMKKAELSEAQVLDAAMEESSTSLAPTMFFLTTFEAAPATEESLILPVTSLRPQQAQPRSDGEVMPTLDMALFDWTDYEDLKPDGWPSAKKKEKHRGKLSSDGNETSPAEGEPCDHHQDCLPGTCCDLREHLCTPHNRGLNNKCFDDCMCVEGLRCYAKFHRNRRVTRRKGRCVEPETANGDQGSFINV
Experiment: SAXS; dilution series 0.3 - 1.2 mg/ml, 20 C, 20 mM HEPES pH 7.4, 150 mM NaCl, 5 mM KCl, 1 mM MgCl2, 1 mM DTT, 10% glycerol; both purified
Settings: remark: other sources report otherwise

- binding: no binding (tested: 0.3 – 1.2 mg/ml)
B1: full-length human Draxin for SAXS, Q8NBI3 26-349 (protein)
chain: T1 chain
